From the supplement of paper PMC10849652
The other results are listed elsewhere or left out.

Protein sequences, listed by entry. Tags and fused reporters are not part of them. Lines headed by an entry give the natural chain unless they say otherwise; changes in a name come on top.
UniProt P53674: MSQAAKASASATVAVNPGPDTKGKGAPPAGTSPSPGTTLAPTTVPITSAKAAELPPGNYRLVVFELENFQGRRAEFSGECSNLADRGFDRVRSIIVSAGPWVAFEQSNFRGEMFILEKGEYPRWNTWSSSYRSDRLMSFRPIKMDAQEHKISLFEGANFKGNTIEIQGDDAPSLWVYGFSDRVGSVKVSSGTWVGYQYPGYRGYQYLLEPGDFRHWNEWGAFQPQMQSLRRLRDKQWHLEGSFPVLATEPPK
UniProt Q9HCP0: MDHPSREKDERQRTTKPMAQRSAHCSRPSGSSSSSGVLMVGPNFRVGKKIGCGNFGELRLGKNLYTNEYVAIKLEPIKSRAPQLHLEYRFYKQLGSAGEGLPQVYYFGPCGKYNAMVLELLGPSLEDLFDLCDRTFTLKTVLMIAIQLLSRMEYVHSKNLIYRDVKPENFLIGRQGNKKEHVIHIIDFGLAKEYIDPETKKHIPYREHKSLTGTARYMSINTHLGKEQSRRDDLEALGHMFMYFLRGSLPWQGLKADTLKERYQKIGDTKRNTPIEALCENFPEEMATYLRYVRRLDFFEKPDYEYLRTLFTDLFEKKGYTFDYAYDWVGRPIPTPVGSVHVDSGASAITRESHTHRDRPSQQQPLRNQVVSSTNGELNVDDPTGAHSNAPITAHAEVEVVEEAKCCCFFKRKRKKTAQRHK
UniProt Q86T23: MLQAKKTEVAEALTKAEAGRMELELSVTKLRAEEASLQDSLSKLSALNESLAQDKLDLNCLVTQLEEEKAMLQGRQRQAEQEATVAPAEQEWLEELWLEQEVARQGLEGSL
UniProt Q12887: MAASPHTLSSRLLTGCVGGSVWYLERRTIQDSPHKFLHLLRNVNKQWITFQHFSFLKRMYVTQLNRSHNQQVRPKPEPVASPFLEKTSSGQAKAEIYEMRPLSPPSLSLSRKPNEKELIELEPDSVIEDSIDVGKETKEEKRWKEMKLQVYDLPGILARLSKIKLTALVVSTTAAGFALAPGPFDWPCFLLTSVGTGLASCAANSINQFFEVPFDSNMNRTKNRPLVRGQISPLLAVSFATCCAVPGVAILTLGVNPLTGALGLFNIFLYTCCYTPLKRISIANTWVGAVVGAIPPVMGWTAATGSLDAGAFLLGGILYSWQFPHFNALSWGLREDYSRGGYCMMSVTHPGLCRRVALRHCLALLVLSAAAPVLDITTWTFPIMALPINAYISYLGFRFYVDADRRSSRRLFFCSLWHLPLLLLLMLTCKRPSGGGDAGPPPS
UniProt O14810: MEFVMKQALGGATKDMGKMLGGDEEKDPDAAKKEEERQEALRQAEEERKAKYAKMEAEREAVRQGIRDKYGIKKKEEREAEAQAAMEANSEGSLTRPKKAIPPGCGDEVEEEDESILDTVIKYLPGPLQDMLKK
UniProt Q96I36: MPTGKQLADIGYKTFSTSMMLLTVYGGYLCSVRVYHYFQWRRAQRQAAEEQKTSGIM
UniProt P29373: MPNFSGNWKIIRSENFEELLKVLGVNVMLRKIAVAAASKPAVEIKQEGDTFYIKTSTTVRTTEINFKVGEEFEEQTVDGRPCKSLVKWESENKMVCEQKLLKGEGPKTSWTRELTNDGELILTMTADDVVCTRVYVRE
UniProt Q96H96: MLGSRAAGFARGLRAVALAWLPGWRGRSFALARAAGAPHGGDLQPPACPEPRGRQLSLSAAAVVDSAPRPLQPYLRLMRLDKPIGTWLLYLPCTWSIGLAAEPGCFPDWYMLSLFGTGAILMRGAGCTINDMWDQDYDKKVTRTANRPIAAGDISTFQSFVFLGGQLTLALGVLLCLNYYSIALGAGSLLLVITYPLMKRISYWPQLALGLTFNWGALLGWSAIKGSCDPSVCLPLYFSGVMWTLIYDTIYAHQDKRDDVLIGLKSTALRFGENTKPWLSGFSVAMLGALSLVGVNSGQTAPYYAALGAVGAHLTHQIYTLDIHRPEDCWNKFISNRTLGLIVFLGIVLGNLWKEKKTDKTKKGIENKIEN
UniProt Q7Z4G1, whole entry, looked up: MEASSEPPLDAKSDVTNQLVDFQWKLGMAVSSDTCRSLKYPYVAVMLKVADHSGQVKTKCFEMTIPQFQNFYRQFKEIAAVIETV
UniProt Q6UUV7: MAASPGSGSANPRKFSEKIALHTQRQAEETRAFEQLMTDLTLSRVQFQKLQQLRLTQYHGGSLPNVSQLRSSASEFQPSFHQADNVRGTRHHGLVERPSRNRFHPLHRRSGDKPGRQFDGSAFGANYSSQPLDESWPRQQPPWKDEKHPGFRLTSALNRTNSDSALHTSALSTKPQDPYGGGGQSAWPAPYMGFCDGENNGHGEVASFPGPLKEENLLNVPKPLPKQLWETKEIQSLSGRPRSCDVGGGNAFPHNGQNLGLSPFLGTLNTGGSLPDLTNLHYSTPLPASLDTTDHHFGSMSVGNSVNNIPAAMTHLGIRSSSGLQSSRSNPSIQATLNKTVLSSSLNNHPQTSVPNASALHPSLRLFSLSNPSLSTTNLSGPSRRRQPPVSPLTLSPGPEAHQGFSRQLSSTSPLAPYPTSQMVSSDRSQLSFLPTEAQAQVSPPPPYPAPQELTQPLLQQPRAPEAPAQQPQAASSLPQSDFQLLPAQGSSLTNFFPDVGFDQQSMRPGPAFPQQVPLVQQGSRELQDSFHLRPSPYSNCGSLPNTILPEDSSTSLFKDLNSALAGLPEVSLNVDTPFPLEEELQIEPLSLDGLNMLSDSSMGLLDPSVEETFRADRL
UniProt P78560: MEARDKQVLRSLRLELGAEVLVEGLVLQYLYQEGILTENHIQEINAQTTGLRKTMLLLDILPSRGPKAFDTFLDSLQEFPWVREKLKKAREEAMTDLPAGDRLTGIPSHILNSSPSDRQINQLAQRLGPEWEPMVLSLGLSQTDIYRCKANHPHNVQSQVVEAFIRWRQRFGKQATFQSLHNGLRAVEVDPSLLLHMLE
UniProt Q49AN0: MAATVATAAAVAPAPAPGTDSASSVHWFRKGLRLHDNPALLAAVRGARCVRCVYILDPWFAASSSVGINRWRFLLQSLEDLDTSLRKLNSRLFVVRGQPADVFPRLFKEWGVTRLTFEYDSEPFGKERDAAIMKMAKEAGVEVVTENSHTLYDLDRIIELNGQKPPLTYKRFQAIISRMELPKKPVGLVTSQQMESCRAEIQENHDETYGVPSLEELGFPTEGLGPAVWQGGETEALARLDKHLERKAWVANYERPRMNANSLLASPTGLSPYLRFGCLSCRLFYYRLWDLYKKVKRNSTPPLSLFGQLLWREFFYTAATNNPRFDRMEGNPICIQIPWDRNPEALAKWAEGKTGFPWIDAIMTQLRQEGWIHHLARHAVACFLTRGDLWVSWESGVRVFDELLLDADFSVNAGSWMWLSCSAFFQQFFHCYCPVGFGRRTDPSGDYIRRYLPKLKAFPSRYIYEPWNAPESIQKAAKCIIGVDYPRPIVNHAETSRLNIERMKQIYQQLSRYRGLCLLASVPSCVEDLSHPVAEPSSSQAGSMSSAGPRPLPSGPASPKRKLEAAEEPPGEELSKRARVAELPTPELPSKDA
UniProt Q9BXS0: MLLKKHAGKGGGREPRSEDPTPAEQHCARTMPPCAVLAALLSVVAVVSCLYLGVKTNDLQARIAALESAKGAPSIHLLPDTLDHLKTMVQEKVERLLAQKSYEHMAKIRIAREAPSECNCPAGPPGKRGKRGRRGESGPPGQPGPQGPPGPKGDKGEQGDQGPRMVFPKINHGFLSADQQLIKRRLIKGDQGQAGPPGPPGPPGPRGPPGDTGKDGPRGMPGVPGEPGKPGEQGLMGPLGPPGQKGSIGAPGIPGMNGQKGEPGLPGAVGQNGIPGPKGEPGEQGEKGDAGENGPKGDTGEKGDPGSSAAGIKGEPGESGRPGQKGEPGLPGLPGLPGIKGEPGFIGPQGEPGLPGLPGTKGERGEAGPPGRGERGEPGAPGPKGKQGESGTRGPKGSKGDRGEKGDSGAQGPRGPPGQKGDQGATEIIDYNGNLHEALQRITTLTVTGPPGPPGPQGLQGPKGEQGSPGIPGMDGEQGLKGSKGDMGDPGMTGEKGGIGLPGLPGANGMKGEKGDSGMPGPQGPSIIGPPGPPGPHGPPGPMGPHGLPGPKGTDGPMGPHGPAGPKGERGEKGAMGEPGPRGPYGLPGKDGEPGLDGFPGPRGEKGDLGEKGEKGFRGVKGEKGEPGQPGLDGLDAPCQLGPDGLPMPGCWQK
UniProt O95639, whole entry, looked up: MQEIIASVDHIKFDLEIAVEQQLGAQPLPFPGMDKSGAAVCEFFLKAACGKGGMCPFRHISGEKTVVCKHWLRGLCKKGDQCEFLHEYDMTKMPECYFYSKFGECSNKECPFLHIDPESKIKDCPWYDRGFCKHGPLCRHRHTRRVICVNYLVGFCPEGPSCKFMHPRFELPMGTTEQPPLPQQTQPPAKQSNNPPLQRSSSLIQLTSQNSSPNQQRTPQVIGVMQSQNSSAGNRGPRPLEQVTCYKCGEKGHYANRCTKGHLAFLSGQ
UniProt Q8N6G5: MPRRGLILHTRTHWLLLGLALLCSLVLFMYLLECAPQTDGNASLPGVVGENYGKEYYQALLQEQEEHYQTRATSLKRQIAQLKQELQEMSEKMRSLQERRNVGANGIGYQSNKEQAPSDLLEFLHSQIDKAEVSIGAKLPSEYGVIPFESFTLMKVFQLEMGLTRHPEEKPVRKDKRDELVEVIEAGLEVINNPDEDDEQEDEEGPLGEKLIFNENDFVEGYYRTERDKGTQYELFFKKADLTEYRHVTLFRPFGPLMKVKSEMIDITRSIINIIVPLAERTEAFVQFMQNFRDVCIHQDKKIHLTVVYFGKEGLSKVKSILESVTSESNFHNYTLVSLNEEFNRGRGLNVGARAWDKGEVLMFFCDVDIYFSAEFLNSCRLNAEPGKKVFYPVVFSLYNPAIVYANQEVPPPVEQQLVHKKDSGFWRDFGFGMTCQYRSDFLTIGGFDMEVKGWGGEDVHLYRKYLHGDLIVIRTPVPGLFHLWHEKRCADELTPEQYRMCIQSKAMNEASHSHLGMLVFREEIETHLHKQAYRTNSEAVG
UniProt P02461, whole entry, looked up: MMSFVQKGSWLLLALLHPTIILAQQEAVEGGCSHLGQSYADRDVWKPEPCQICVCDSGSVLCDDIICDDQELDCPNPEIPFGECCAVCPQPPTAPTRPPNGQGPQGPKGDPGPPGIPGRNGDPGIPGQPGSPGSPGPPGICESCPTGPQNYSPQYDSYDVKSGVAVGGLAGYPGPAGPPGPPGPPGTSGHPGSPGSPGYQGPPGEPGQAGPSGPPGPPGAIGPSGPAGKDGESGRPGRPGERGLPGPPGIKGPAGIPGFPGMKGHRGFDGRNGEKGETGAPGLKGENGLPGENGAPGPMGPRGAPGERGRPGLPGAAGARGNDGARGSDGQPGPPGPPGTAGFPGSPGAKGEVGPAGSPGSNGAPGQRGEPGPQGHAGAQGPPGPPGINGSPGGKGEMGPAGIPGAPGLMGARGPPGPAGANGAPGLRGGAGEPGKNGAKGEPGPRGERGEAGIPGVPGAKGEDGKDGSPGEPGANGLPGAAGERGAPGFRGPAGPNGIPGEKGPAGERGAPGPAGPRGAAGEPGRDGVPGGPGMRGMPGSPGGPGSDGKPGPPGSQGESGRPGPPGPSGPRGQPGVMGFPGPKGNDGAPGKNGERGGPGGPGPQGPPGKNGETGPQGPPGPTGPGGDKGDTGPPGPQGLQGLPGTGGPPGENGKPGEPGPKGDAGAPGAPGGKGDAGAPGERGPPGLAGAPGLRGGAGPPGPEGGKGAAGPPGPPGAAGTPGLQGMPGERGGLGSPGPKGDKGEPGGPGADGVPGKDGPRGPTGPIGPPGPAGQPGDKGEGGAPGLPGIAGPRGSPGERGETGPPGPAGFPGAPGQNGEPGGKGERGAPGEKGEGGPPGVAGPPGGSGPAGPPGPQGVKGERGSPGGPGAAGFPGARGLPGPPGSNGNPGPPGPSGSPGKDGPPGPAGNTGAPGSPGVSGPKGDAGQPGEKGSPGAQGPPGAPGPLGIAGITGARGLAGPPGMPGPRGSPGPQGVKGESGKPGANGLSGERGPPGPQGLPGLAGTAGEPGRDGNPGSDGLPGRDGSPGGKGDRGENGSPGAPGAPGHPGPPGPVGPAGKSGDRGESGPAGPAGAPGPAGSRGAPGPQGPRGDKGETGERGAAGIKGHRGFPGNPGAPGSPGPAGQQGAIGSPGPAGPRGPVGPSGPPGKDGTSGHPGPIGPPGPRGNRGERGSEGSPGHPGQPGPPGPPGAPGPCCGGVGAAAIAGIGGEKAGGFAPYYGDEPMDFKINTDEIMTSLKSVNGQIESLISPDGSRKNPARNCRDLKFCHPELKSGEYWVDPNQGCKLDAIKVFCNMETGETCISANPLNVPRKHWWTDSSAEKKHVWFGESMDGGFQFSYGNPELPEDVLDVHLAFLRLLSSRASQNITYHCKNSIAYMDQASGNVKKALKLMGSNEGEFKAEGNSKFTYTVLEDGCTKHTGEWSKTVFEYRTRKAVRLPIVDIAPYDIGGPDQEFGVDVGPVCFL
UniProt Q9UBI1, whole entry, looked up: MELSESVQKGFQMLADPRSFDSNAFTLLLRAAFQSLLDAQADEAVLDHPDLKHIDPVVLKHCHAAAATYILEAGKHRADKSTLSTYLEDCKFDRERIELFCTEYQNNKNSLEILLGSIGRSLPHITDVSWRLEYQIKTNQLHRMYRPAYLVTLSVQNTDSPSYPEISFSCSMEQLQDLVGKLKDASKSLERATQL

Experiments:
Assay in all cases: log2 fold change, soluble protein after heating vs DMSO (PISA); higher = thermal stabilisation; K562 cells, 10 uM, 30 min; active = over 0.2 and 3.5 SD of the protein, either way, in both replicates (recomputed)
[1] = compound: O=C1NC(=O)C(c2cnc3ccccn23)=C1c1cn2c3c(cc(F)cc13)CN(C(=O)N1CCCCC1)CC2
In short: (§1)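 Soluble protein was quantified by TMTpro 16plex LC-MS/MS after channel sums were equalised. It was obtained as the supernatant after 21,000xg for 90 min from pooled aliquots of K562 cells (2×10^6 cells/mL, 10 μM compound, 30 min) heated for 3 min across 48°C-58°C and extracted in PBS with 0.5% NP-40 at 4°C. Thermal stability values are relative to control samples and come from duplicates. They are given as log2 fold changes.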

[2] = compound: NC(=O)Nc1cc(-c2cccc(F)c2)sc1C(=O)N[C@H]1CCCNC1
In short: as §1

[3] = compound: NC1(c2ccc(-c3nc4ccn5c(=O)[nH]nc5c4cc3-c3ccccc3)cc2)CCC1
In short: as §1

entinostat = compound: Nc1ccccc1NC(=O)c1ccc(CNC(=O)OCc2cccnc2)cc1 [entinostat]
In short: as §1

citarinostat = compound: O=C(CCCCCCNC(=O)c1cnc(N(c2ccccc2)c2ccccc2Cl)nc1)NO [citarinostat]
In short: as §1

silmitasertib = compound: O=C(O)c1ccc2c(c1)nc(Nc1cccc(Cl)c1)c1ccncc12 [silmitasertib]
In short: as §1

[4] = compound: c1cc(OCCN2CCCCC2)cc(-c2n[nH]c3ccc(-c4nnc[nH]4)cc23)c1
In short: as §1

[5] = compound: NC(=O)c1cnc(N[C@@H]2CCCC[C@@H]2N)nc1Nc1cccc(-n2nccn2)c1
In short: as §1

vorinostat = compound: O=C(CCCCCCC(=O)Nc1ccccc1)NO [vorinostat]
In short: as §1

[6] = compound: NCC(=O)Nc1ccc(-n2nc(C(F)(F)F)cc2-c2ccc3c(ccc4ccccc43)c2)cc1
In short: as §1

Measured: log2 fold change

CRYBB1 (UniProt P53674)
inactive: [1] 0.044

CSNK1G1 (UniProt Q9HCP0)
inactive: [2] 0.092 | [3] -0.09 | entinostat 0.103 | citarinostat 0.121 | silmitasertib -0.004 | [1] -0.207 | [4] -0.104

COMMD3-BMI1 (UniProt R4GMX3)
inactive: [2] 0.003 | [5] 0.076 | entinostat -0.062 | vorinostat 0.109 | [1] -0.012

CPA4 (UniProt Q9UI42)
inactive: [5] 0.335 | [6] 0.223 | citarinostat -0.656 | [4] 1.61

CROCCP2 (UniProt Q86T23)
inactive: citarinostat -0.054 | [4] 0.006

COLEC11 isoform 10 (UniProt Q9BWP8)
inactive: [5] -0.103 | [3] 0.002 | [6] -0.038 | silmitasertib -0.021 | [1] 0.085

COQ10B (UniProt Q9H8M1)
inactive: [2] -0.235 | entinostat -0.194 | citarinostat 0.066 | [1] 0.023 | [4] 0.251

CPTP (UniProt Q5TA50)
inactive: [2] 0.132 | [3] -0.317 | entinostat -0.114 | silmitasertib 0.169

CRABP1 (UniProt P29762)
inactive: [6] 0.225 | vorinostat 0.365

COX10 (UniProt Q12887)
inactive: [5] -0.087 | [3] -0.065 | [6] -0.068 | vorinostat 0.141 | citarinostat 0.073 | silmitasertib -0.022 | [1] -0.126 | [4] -0.068

CPLX1 (UniProt O14810)
inactive: [5] -0.156 | [3] 0.287 | [6] -0.144 | vorinostat -0.13 | silmitasertib 0.036 | [1] -0.164

CS (UniProt F8VU34)
inactive: citarinostat -0.298 | [4] -0.393

9 consecutive records from above, quoted:
COMMD3-BMI1 (UniProt R4GMX3)
inactive: [2] 0.003 | [5] 0.076 | entinostat -0.062 | vorinostat 0.109 | [1] -0.012

CPA4 (UniProt Q9UI42)
inactive: [5] 0.335 | [6] 0.223 | citarinostat -0.656 | [4] 1.61

CROCCP2 (UniProt Q86T23)
inactive: citarinostat -0.054 | [4] 0.006

COLEC11 isoform 10 (UniProt Q9BWP8)
inactive: [5] -0.103 | [3] 0.002 | [6] -0.038 | silmitasertib -0.021 | [1] 0.085

COQ10B (UniProt Q9H8M1)
inactive: [2] -0.235 | entinostat -0.194 | citarinostat 0.066 | [1] 0.023 | [4] 0.251

CPTP (UniProt Q5TA50)
inactive: [2] 0.132 | [3] -0.317 | entinostat -0.114 | silmitasertib 0.169

CRABP1 (UniProt P29762)
inactive: [6] 0.225 | vorinostat 0.365

COX10 (UniProt Q12887)
inactive: [5] -0.087 | [3] -0.065 | [6] -0.068 | vorinostat 0.141 | citarinostat 0.073 | silmitasertib -0.022 | [1] -0.126 | [4] -0.068

CPLX1 (UniProt O14810)
inactive: [5] -0.156 | [3] 0.287 | [6] -0.144 | vorinostat -0.13 | silmitasertib 0.036 | [1] -0.164

More records

COMMD1 (UniProt Q8N668)
inactive: [2] -0.043 | [3] 0.051 | [6] -0.069 | entinostat 0.008 | vorinostat -0.032 | citarinostat 0.039 | silmitasertib -0.021 | [1] -0.018 | [4] -0.065

COX14 (UniProt Q96I36)
inactive: [2] -0.037 | entinostat 0.017 | vorinostat 0.093 | citarinostat 0.184 | [1] -0.052 | [4] -0.092

CRABP2 (UniProt P29373)
inactive: [3] -0.064 | vorinostat -0.224 | silmitasertib -0.072 | [1] 0.076

COQ2 (UniProt Q96H96)
inactive: citarinostat 0.079 | [1] 1.24 | [4] -0.043

CREB3L2 (UniProt Q70SY1)
inactive: [5] -0.102 | [3] -0.074 | [6] 0.035 | silmitasertib 0.023 | [1] -0.076

COMMD6 isoform 2 (UniProt Q7Z4G1)
inactive: [6] -0.436 | vorinostat 0.346 | citarinostat 0.095 | [1] -0.1 | [4] 0.045

CRTC3 (UniProt Q6UUV7)
inactive: [3] -0.007 | [6] 0.001 | entinostat 0.057 | silmitasertib 0.098 | [1] 0.025
active: [2] -0.754

CRADD (UniProt P78560)
inactive: [5] -0.618 | [6] -0.155

COL6A3 (UniProt P12111)
inactive: vorinostat 0.21 | citarinostat -0.025 | [1] -0.087 | [4] 0.072

CPNE7 (UniProt Q9UBL6)
inactive: [5] -0.088 | [3] -0.111 | [6] -0.046 | citarinostat 0.008 | silmitasertib -0.026 | [4] 0.059

CRY2 (UniProt Q49AN0)
inactive: [5] 0.032 | [6] -0.013

CRLS1 (UniProt Q9UJA2)
inactive: [3] 0.027 | [6] 0.06 | entinostat 0.151 | vorinostat -0.005 | citarinostat 0.012 | silmitasertib 0.017 | [4] -0.051
active: [2] 0.323

COL25A1 (UniProt Q9BXS0)
inactive: [1] 0.111

CPSF4 (UniProt O95639)
inactive: [5] -0.51 | [3] 0.155 | vorinostat 0.072 | silmitasertib 0.176

CSGALNACT2 (UniProt Q8N6G5)
inactive: [5] -0.174 | [1] 0.018

COL3A1 (UniProt P02461)
inactive: [6] 0.213 | vorinostat 0.032 | [1] 0.089

COP1 (UniProt Q8NHY2)
inactive: [5] -0.371

COMMD3 (UniProt Q9UBI1)
inactive: [5] 0.017 | [3] 0.022 | [6] -0.1 | citarinostat 0.012 | silmitasertib -0.011 | [4] -0.223
